Among all 1,500 compounds or so, about 460 (31%) were called active. Roughly 1% stayed inconclusive and do not appear here.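 Rule for the calls: active = curve reaches 40% activation over neutral controls at an AC40 no higher than the top valid tested concentration; inconclusive = no clear call, values can overlap the other calls; inactive = signal moving opposite to the expected increase, and the rest.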 The list shows a part of the results, in another mix than the full data. Results with a measured potency or affinity are listed apart.

This assay in a line: activators of glucose-dependent insulin secretion, dose response, cell-based, INS-1E, Gaussia luciferase, luminescence, cherry-pick, set 2 (AID 977607).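 Note: 0% = median of the plate neutral control wells.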 As to conditions: INS-1E GLuc insulin secretion reporter, 2-3 h, at 0.005 µM, hits give high values, 100% = signal doubled over neutral wells.
As to `c1ccc(N2[C@@H]3CC[C@H]2c2ccncc2C3)cc1`, the max activation was inactive: -18.6%.
